Results as given in publication PMC10163288.
The other results are listed elsewhere or left out.

B1: il10ra_site1_sap_17_mot_HHH_b1_02665_000000293_0001_1_18_H_._HHH_b1_07223_af2_0001_0000300011_0000001_0_0001 (protein)
chain: SSSSDEEVERRVEELLEEAKHITDPEELEKLIVEAAALAARANDPHLSMAVIRVYAELHQKSSSS
B2: il10ra_site1_sap_12_mot_HHH_b1_07527_000000076_0001_1_15_H_._744e782b3a2987b27db6241638482799_0001_1_0001_0000600019_0000001_0_0001_af2pred_dldesign_0_af2pred (protein)
chain: SSSSSEMEEALRLAAIARAIAEKKGDLDTVKKLFDLSVELYKTKDPELAEELRALAEKILSSSSS
B3: il10ra_site1_normal_mot_HHH_b1_07768_000000240_0001_18_35_H_._HHH_b1_03140_0001_0000200010_0000002_0 (protein)
chain: SSSSTLEFSVRFLLRHAEELLENGDPEKARFQLEKLKEHLKQAGNEELLEELEELLREVNSSSSS
B4: il10ra_site1_sap_21_mot_HHH_b1_02665_000000293_0001_1_18_H_._HHH_b1_03134_af2_0001_0000500018_0000001_0_0001 (protein)
chain: SSSSDEEYEEIKRLAQEIVEALRNNDPELVRELLEELKELAEELNDWSAEFAVRLLEEILRSSSS
B5: il10ra_site1_sap_20_mot_HHH_b2_02116_af2_000000165_0001_41_55_H_._HHH_b1_04497_af2_0001_0000400017_0000001_0_0001 (protein)
chain: SSSSDELEERIEELLKELEKLVEEGDMEKVMRLAKEILHLLFRLGNPELVHELWKIAHAAYSSSS
B6: il10ra_site1_normal_mot_HHH_b2_07442_000000239_0001_40_54_H_._HHH_b2_02446_0001_0000300042_0000001_0 (protein)
chain: SSSSDLAREVYEALRRAAELDRNGNPEEVERLLEELLKELEELNDEFLLVLVESVRRIFKSSSSS
B7: il10ra_site1_normal_mot_HHH_b1_02397_af2_000000085_0001_39_57_H_._HHH_b1_04458_af2_0001_0000400029_0000001_0 (protein)
chain: SSSDLEEEIRELLEEVEELLKEGDHEEAARLLQELLRLIFRLGDAELLRILYELVRLLAELSSSS
B8: il10ra_site1_normal_mot_HHH_b2_05797_000000294_0001_1_19_H_._HHH_b1_05870_0001_0000100004_0000001_0 (protein)
chain: SSSSSELEQYAEATLRFAKALAEAGDPEAARFLLEAVLQVLEKENNEELLELVEKLLEEISSSSS
B9: il10ra_site1_normal_mot_HHH_b1_02397_af2_000000085_0001_39_57_H_._HHH_b1_04573_af2_0001_0000500005_0000001_0 (protein)
chain: SSSSDEEEEELEELLKRLEELIEEGDREEFARLVQELLRLAFRLSDPEVLQRVWELVREAASSSS
B10: il10ra_site1_sap_18_mot_HHH_b2_04275_000000272_0001_20_36_H_._HHH_b1_07345_af2_0001_0000300023_0000001_0_0001 (protein)
chain: TEEILEAVEELLRELNSPNAKALLYLIEHQREHGAPPETILRSLKAAARILGDPEVLRLIEEAEK
B11: il10ra_site1_normal_mot_HHH_b1_00999_000000080_0001_41_55_H_._HHH_b2_07534_af2_0001_0000400038_0000001_0 (protein)
chain: SSSSDEEEEELRELLELVEELLERGDPERASRVAQELLRLIFRLSDEEALKKLWELMKKYGSSSS
B12: il10ra_site1_sap_15_mot_HHH_b1_06912_af2_000000235_0001_1_15_H_._HHH_b1_05618_af2_0001_0000500055_0000001_0_0001 (protein)
chain: SSSSSSEEQEEFRRLEEELEEAKSAQEFYEILKRLIEVAVKANDPELERLVHELLRRFIHSSSSS
B13: il10ra_site1_sap_27_mot_HHH_b1_02881_000000027_0001_1_20_H_._HHH_b2_04581_0001_0000200009_0000001_0_0001 (protein)
chain: SSSSDAEKRIAELLHELMEAYKRGDKEEARELLRELEELAEELNNKALRWILEFMERLLNSSSSS
B14: il10ra_site1_sap_14_mot_2fa031a62b9321f410fa37cb4b35ac9e_0001_af2_000000160_0001_1_14_H_._HHH_b1_01441_af2_0001_0000100002_0000002_0_0001 (protein)
chain: SSSSSDEEEVEKLLEKAEEAAERGNPEEANKLLAEAVRLAYQARNEELLREIWEVVRRLGSSSSS
B15: il10ra_site1_normal_mot_HHH_b2_01310_000000089_0001_41_55_H_._ems_p1-15H-GBL-16H-GABBL-16H_0175_0001_0001_0002_af2_0001_0000100008_0000001_0 (protein)
chain: SSSSSDVVELAQEAVRFAFEKGDAEGLQRIMEVLKAFINGEISEEEASERLEEILEELRSSSSSS
B16: il10ra_site1_sap_18_mot_HHH_b2_01999_000000006_0001_1_18_H_._HHH_b2_08069_af2_0001_0000200010_0000001_0_0001_af2pred_0001 (protein)
chain: SSSSDLEADIRSAARAARLLLEAGDPEKAEEALRIAELSAELANNEELKEEIRRLEEEVRSSSSS
B17: il10ra_site1_sap_27_mot_HHH_b2_02567_af2_000000093_0001_41_57_H_._HHH_b1_03852_0001_0000400038_0000002_0_0001 (protein)
chain: SSSSDEDERYLELALHFAEALLEDGDPEAARLILKAAADIARKAGDEELLEEIERLLEEIGSSSS
B18: il10ra_site1_normal_mot_0cd074c2d6d3de76f1399c5a775575d2_0001_1_af2_000000000_0001_16_30_H_._HHH_b1_05697_af2_0001_0000400018_0000001_0 (protein)
chain: SSSSDEEELRELVEELVKELGLSEEAQERLELALEALLEQGVDEREIKRLLEIQARLLAFTSSSS
B19: il10ra_site1_normal_mot_HHH_b1_01879_000000050_0001_1_18_H_._HHH_b1_00727_af2_0001_0000600044_0000002_0_af2pred_0001 (protein)
chain: SSSSSEEVLRLLLEALKLIRRGDLEEAEEVLKEMERLAEELNDEQARRAVEVLKRLLEELGSSSS
B20: il10ra_site1_normal_mot_HHH_b2_03220_af2_000000223_0001_23_40_H_._HHH_b2_00330_0001_0000100005_0000002_1_af2pred_0001 (protein)
chain: SSSSDAREVQRLIREAWRLLREGNPEEAQKLLEEAEEIAKEAGNELLERLLERLRKEIENSSSSS
B21: il10ra_site1_normal_mot_HHH_b2_00612_000000251_0001_1_14_H_._HHH_b2_03072_0001_0000200008_0000002_0 (protein)
chain: SSSSDESTELARKAAEELSELEREGNEEEFERLAREVVEQLRELGNQLAAFSIEYLLRLAKSSSS
B22: il10ra_site1_normal_mot_HHH_b1_06125_000000022_0001_1_19_H_._HHH_b1_05627_0001_0000200015_0000002_0 (protein)
chain: SSSSDEEREEALELAREIFRLALRGNPEEAERLLEELRELVEKIGNPALEKAVRILEEALSSSSS
B23: il10ra_site1_normal_mot_HHH_b1_06994_000000193_0001_40_55_H_._HHH_b2_06735_0001_0000100008_0000001_0_af2pred_0001 (protein)
chain: SSSSSEEERKLARAALRLAEEIYEAGNPEVAERLLRALAEILEKEGDEELLQEVERLLEELSSSS
B24: il10ra_site1_sap_26_mot_HHH_b2_06321_af2_000000133_0001_42_55_H_._HHH_b2_07191_af2_0001_0000100003_0000001_0_0001 (protein)
chain: SSSSSNEERAKEAAELMLRAAKQLDDPEYVRMALRFALHLARYANDEELEEEIEELLKEYSSSSS
B25: il10ra_site1_sap_13_mot_HHH_b1_05357_000000034_0001_23_39_H_._HHH_b2_05608_0001_0000100002_0000001_0_0001 (protein)
chain: SSSSDQEEELAEAAHRLIEQALKHGDEEAARMLLWSLHFLAEELNDPELRELVEELRQRLDSSSS
B26: il10ra_site1_sap_13_mot_HHH_b1_05357_000000034_0001_23_39_H_._HHH_b2_03488_0002_0000100008_0000001_0_0001 (protein)
chain: SSSSDEIEKRIEELLEEYEELVEKGDPERAARVIMEALHLAFRVRDEEALHKIWRLLKEQSSSSS
B27: il10ra_site1_normal_mot_b26a303360aa2756ef5b79665ce52f45_0001_000000179_0001_1_11_H_._HHH_b2_02758_0001_0000200026_0000001_0 (protein)
chain: SSSSSSRREVYELIREALHIDDLEEAREVLEEALELAKEAGDFVLRFSVEHLLRVLEEASSSSSS
B28: il10ra_site1_normal_mot_HHH_b1_01879_000000050_0001_1_18_H_._HHH_b2_01804_0001_0000300022_0000001_0_af2pred_0001 (protein)
chain: SSSSDLEEEVEKAKEEAEELLKRGNEEEAQELLFKIQIKAYQNNNRELARELAELIIEILRSSSS
B29: il10ra_site1_sap_29_mot_0750aae41c39e4229e2ea8fa354cc919_0001_1_000000144_0001_37_51_H_._HHH_b2_05459_0001_0000500025_0000001_0_0001 (protein)
chain: SSSSSEASRFAYEVLRRASELARRGNPEEAERLLEEAEELVREAGNRVLLFVLEYVLKRLSSSSS
B30: il10ra_site1_normal_mot_HHH_b2_00345_af2_000000013_0001_42_56_H_._HHH_b1_07352_af2_0001_0000500035_0000002_0 (protein)
chain: SSSSNDVSRVVAEALRHAFRLSDRETLRELWEAFKEYIKEGDEEYKERLEELLEELRERLSSSSS
B31: il10ra_site1_sap_24_mot_39ab2cb694c8b9c1dc7e65c0d672c93e_0001_000000036_0001_53_65_H_._HHH_b1_01585_af2_0001_0000200009_0000001_0_0001 (protein)
chain: SSSSSESARKFVRIAEEVIRRAIELGDEEYAELALRFLKASAEAANDEEAEEVLRELEELLSSSS
B32: il10ra_site1_sap_21_mot_HHH_b1_06341_af2_000000167_0001_17_35_H_._HHH_b1_02683_af2_0001_0000500027_0000001_1_0001 (protein)
chain: SSSSSEAFRRVERLLKEVVELARNGNPEEAQKVAEEAQEVAEEAGNQLLRRAVEYLLRIVSSSSS
B33: il10ra_site1_sap_22_mot_HHH_b1_03314_af2_000000278_0001_42_55_H_._HHH_b1_01485_0001_0000400019_0000002_0_0001_af2pred_0001 (protein)
chain: SSSSSSSAEELVKLALEVAKLLTDEELVEEALEQAKRLARINNNDELEREIEEVEREISSSSSSS
B34: il10ra_site1_sap_10_mot_HHH_b1_00456_000000263_0001_1_17_H_._HHH_b2_00546_0001_0000100001_0000002_0_0001_af2pred_dldesign_0_af2pred (protein)
chain: SSSDPKQKVLDLLAKAARLAKEGKLEEARKLIEEAEKLAKELKDPKLIAAVNYYKKLLEELSSSS
B35: il10ra_site1_normal_mot_HHH_b2_02337_000000026_0001_38_52_H_._HHH_b1_05800_0001_0000400037_0000001_0 (protein)
chain: SSSSDAEEELEEILERLEEALEKGDQELFAELALRLVQLAIQNSDEEILQLLWELVQKFASSSSS
B36: il10ra_site1_sap_18_mot_HHH_b1_08356_000000013_0001_43_57_H_._HHH_b2_06261_0001_0000100001_0000001_0_0001_af2pred_0001 (protein)
chain: SSSSRDEEAAELAIRFIKFLLEQGDRRAVKILLRALKELAEKLNDEELKEEIKELHELLEELSSS
B37: il10ra_site1_sap_22_mot_HHH_b2_01018_af2_000000007_0001_1_20_H_._HHH_b2_04835_0001_0000100003_0000002_0_0001 (protein)
chain: SSSSTEAYEISRRALELLREGNEEEARELLEKLEKELEEKGNFNFLFSVRAALRAVEARERSSSS

biological target: il10ra, Q13651; test: yeast display titration

Apparent Kd, inactive:
B1 no binding seen, B2 no binding seen, B3 no binding seen, B4 no binding seen, B5 no binding seen, B6 no binding seen, B7 no binding seen, B8 no binding seen, B9 no binding seen, B10 no binding seen, B11 no binding seen, B12 no binding seen, B13 no binding seen, B14 no binding seen, B15 no binding seen, B16 no binding seen, B17 no binding seen, B18 no binding seen, B19 no binding seen, B20 no binding seen, B21 no binding seen, B22 no binding seen, B23 no binding seen, B24 no binding seen, B25 no binding seen, B26 no binding seen, B27 no binding seen, B28 no binding seen, B29 no binding seen, B30 no binding seen, B31 no binding seen, B32 no binding seen, B33 no binding seen, B34 no binding seen, B35 no binding seen, B36 no binding seen, B37 no binding seen
